Values of other authors as cited in paper PMC6117091, “The C. difficile clnRAB operon initiates adaptations to the host environment in response to LL-37” (PLoS Pathogens, 2018).

Conditions: ref [6]–[8]; cited from earlier work

For `CC[C@H](C)[C@H](NC(=O)[C@H](CCCCN)NC(=O)[C@H](CCC(=O)O)NC(=O)[C@H](CCCCN)NC(=O)[C@H](CO)NC(=O)[C@H](CCCCN)NC(=O)[C@H](CCCNC(=N)N)NC(=O)[C@H](Cc1ccccc1)NC(=O)[C@H](Cc1ccccc1)NC(=O)[C@H](CC(=O)O)NC(=O)CNC(=O)[C@H](CC(C)C)NC(=O)[C@@H](N)CC(C)C)C(=O)NCC(=O)N[C@@H](CCCCN)C(=O)N[C@@H](CCC(=O)O)C(=O)N[C@@H](Cc1ccccc1)C(=O)N[C@@H](CCCCN)C(=O)N[C@@H](CCCNC(=N)N)C(=O)N[C@H](C(=O)N[C@H](C(=O)N[C@@H](CCC(N)=O)C(=O)N[C@@H](CCCNC(=N)N)C(=O)N[C@H](C(=O)N[C@@H](CCCCN)C(=O)N[C@@H](CC(=O)O)C(=O)N[C@@H](Cc1ccccc1)C(=O)N[C@@H](CC(C)C)C(=O)N[C@@H](CCCNC(=N)N)C(=O)N[C@@H](CC(N)=O)C(=O)N[C@@H](CC(C)C)C(=O)N[C@H](C(=O)N1CCC[C@H]1C(=O)N[C@@H](CCCNC(=N)N)C(=O)N[C@H](C(=O)N[C@@H](CCC(=O)O)C(=O)N[C@@H](CO)C(=O)O)[C@@H](C)O)C(C)C)[C@@H](C)CC)C(C)C)[C@@H](C)CC` [LL-37], the “level in feces during shigellosis” value is listed as ~ 5 μg per gram of feces.
